These are yes or no findings as the source states them, for the method shown. Binding seen in cells or lysates may run through a third protein.
Target: PP2A catalytic Cα subunit, N-terminally SmBiT-tagged (human) (UniProt P67775)
Test: split reporter; live COS-1 cells in 96-well plates transfected with equal mass ratios of plasmids for SmBiT-Cα, Bβ2-LgBiT and Aα (without Lg/SmBiT); luminescence with Nano-Glo Live Cell Substrate after 24-36 h; normalised for Bβ2-LgBiT expression with a cell-permeable HiBiT peptide

By UniProt entry, the sequences of proteins in these tests, tags left out.
UniProt P67775: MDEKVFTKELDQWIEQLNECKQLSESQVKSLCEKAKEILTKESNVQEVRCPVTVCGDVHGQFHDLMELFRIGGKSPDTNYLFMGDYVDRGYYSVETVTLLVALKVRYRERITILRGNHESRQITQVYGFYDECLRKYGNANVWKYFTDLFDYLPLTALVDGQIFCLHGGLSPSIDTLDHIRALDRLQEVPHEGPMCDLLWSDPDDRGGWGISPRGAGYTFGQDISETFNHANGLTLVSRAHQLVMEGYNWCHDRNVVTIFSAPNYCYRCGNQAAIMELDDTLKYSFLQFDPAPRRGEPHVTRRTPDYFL

binding: no binding
Substance: PPP2R2B/Bβ2 RR168EE (monomeric A/B interface mutant), C-terminally LgBiT-tagged (from UniProt Q00005-2)

Source: PMC11780858
